Experimental data: patent publication WO2014037419A1 (dated 2014)
Results are given in words; binding and its absence hold for the method and conditions named. A result given as binding can be weak or reduced; the word gives no strength.

target: Recombinant human CD74 73-232 (human); test: panning and screening of phage library clones on recombinant human CD74 73-232

binding | Binder
binds | NbhCD74n4 (VHH) VHH: QVQLVESGGALVQPGGSLRLSCAASGFSFSSYFMSWVRQAPGKGLEWVSSINSGGGSTYYATSVKGRFTISRDNAKNTLYLQMNSLKPEDTAVYYCTSQDWHYWGKGTQVTVSS
binds | NbhCD74n1 (VHH) VHH: QVQLQESGGGLVQPGGSLRLSCAASGFTFSSYWMYWVRQAPGKGLEWVSGINTGGGSTYYADSVKGRFTISRDNAKNTLYLQMNSLKSEDTAVYYCATWAYSDYDPQYDYWGQGTQVTVSS
binds | NbhCD74n5 (VHH) VHH: QVQLQESGGGLVQAGGSLRLSCADSGFTFDDYAIGWFRQAPGKEREGVSCISSSDGSTYYADSVKGRFTISSDNAKNTVYLQMNSLKPEDTAVYYCAALELPGIKWGAETRWDRWAEYDYWGQGTQVTVSS
binds | NbhCD74n6 (VHH) VHH: QVQLQESGGGLVQPGGSLRLSCAASGFTFSSSAMSWVRQAPGKGLEWVSSIYSYTSNTYYADSVKGRFTISTDNAKNTLYLQMNSLKSEDTAVYYCAYGEDFSSWGQGTQVTVSS
binds | NbhCD74n9 (VHH) VHH: QVQLVESGGGSVQPGGSLRLSCAASGFTFSSSVMSWVRQAPGKGLEWVSSIYSYSYNTYYADSVKGRFTISTDNAKNTLYLQMNSLKSEDTAVYYCAYGEDFSSWGQGTQVTVSS
